# Data taken from the supplement of paper PMC8728848.
# Some of the results follow.
# B1: FBG2 (Homo sapiens), Q9NRD1 (protein)
# chain: MDAPHSKAALDSINELPENILLELFTHVPARQLLLNCRLVCSLWRDLIDLMTLWKRKCLREGFITKDWDQPVADWKIFYFLRSLHRNLLRNPCAEEDMFAWQIDFNGGDRWKVESLPGAHGTDFPDPKVKKYFVTSYEMCLKSQLVDLVAEGYWEELLDTFRPDIVVKDWFAARADCGCTYQLKVQLASADYFVLASFEPPPVTIQQWNNATWTEVSYTFSDYPRGVRYILFQHGGRDTQYWAGWYGPRVTNSSIVVSPKMTRNQASSEAQPGQKHGQEEAAQSPYRAVVQIFPPPVTIQQWNNATWTEVSYTFSDYPRGVRYILFQHGGRDTQYWAGWYGPRVTNSSIVVSPKMTRNQASSEAQPGQKHGQEEAAQSPYRAVVQI
# Columns and labels:
# Test in all cases: glycan array binding signal (z-score within array); higher = stronger binding
# Settings in all cases: glycan notation: IUPAC condensed, linker removed
# Fuc(a1-2)Gal = molecular target: Fuc(a1-2)Gal
# Summary of the method: (§1)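 The Consortium for Functional Glycomics database supplied 3228 glycan arrays, of which those lacking an available protein sequence were dropped. The binding signal, a within-array Z-score, was averaged across arrays of the same protein sequence and across linkers. Negative scores can be read as non-binding.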
# Fuc(a1-2)Gal(b1-3)GalNAc = molecular target: Fuc(a1-2)Gal(b1-3)GalNAc
# Summary of the method: as §1
# [1] = molecular target: Fuc(a1-2)Gal(b1-3)GalNAc(b1-3)Gal
# Summary of the method: as §1
# [2] = molecular target: Fuc(a1-2)Gal(b1-3)GalNAc(b1-3)Gal(a1-4)Gal(b1-4)Glc
# Summary of the method: as §1
# [3] = molecular target: Fuc(a1-2)Gal(b1-3)GalNAc(b1-3)Gal(b1-4)Glc
# Summary of the method: as §1
# [4] = molecular target: Fuc(a1-2)Gal(b1-3)GalNAc(b1-4)[Neu5Ac(a2-3)]Gal(b1-4)Glc
# Summary of the method: as §1
# [5] = molecular target: Fuc(a1-2)Gal(b1-3)[Fuc(a1-4)]GlcNAc
# Summary of the method: as §1
# Fuc(a1-2)Gal(b1-4)Glc = molecular target: Fuc(a1-2)Gal(b1-4)Glc
# Summary of the method: as §1
# Fuc(a1-2)Gal(b1-4)Glc6S = molecular target: Fuc(a1-2)Gal(b1-4)Glc6S
# Summary of the method: as §1
# Fuc(a1-2)Gal(b1-4)GlcNAc = molecular target: Fuc(a1-2)Gal(b1-4)GlcNAc
# Summary of the method: as §1
# [6] = molecular target: Fuc(a1-2)Gal(b1-4)GlcNAc(b1-3)Gal(b1-4)GlcNAc
# Summary of the method: as §1
# [7] = molecular target: Fuc(a1-2)Gal(b1-4)GlcNAc(b1-3)Gal(b1-4)GlcNAc(b1-3)Gal(b1-4)GlcNAc
# Summary of the method: as §1
# [8] = molecular target: Fuc(a1-2)Gal(b1-4)GlcNAc6S
# Summary of the method: as §1
# [9] = molecular target: Fuc(a1-2)Gal(b1-4)[Fuc(a1-3)]GalNAc(b1-3)Gal(b1-4)[Fuc(a1-3)]GlcNAc
# Summary of the method: as §1
# [10] = molecular target: Fuc(a1-2)Gal(b1-4)[Fuc(a1-3)]GalNAc(b1-3)Gal(b1-4)[Fuc(a1-3)]GlcNAc(b1-3)Gal(b1-4)[Fuc(a1-3)]GalNAc
# Summary of the method: as §1
# [11] = molecular target: Fuc(a1-2)Gal(b1-4)[Fuc(a1-3)]GlcNAc
# Summary of the method: as §1
# Fuc(a1-2)Gal6S(b1-4)Glc = molecular target: Fuc(a1-2)Gal6S(b1-4)Glc
# Summary of the method: as §1
# [12] = molecular target: Fuc(a1-2)Gal6S(b1-4)Glc6S
# Summary of the method: as §1
# [13] = molecular target: Fuc(a1-2)Gal6S(b1-4)GlcNAc
# Summary of the method: as §1
# Fuc(a1-2)GlcNAc = molecular target: Fuc(a1-2)GlcNAc
# Summary of the method: as §1
# Fuc(a1-2)[Gal(a1-3)]Gal = molecular target: Fuc(a1-2)[Gal(a1-3)]Gal
# Summary of the method: as §1
# [14] = molecular target: Fuc(a1-2)[Gal(a1-3)]Gal(b1-3)GlcNAc
# Summary of the method: as §1
# [15] = molecular target: Fuc(a1-2)[Gal(a1-3)]Gal(b1-4)Glc
# Summary of the method: as §1
# [16] = molecular target: Fuc(a1-2)[Gal(a1-3)]Gal(b1-4)GlcNAc
# Summary of the method: as §1
# [17] = molecular target: Fuc(a1-2)[Gal(a1-3)]Gal(b1-4)[Fuc(a1-3)]GlcNAc
# Summary of the method: as §1
# [18] = molecular target: Fuc(a1-2)[Gal(a1-4)]Gal(b1-4)GalNAc
# Summary of the method: as §1
# [19] = molecular target: Fuc(a1-2)[GalNAc(a1-3)]Gal
# Summary of the method: as §1
# [20] = molecular target: Fuc(a1-2)[GalNAc(a1-3)]Gal(b1-3)GlcNAc
# Summary of the method: as §1
# [21] = molecular target: Fuc(a1-2)[GalNAc(a1-3)]Gal(b1-4)Glc
# Summary of the method: as §1
# [22] = molecular target: Fuc(a1-2)[GalNAc(a1-3)]Gal(b1-4)GlcNAc
# Summary of the method: as §1
# [23] = molecular target: Fuc(a1-2)[GalNAc(a1-3)]Gal(b1-4)[Fuc(a1-3)]GlcNAc
# Summary of the method: as §1
# [24] = molecular target: Fuc(a1-2)[GalNAc(a1-4)]Gal(b1-4)GlcNAc
# Summary of the method: as §1
# Fuc(a1-3)GlcNAc = molecular target: Fuc(a1-3)GlcNAc
# Summary of the method: as §1
# [25] = molecular target: Fuc(a1-3)[Gal(b1-4)]Glc6S
# Summary of the method: as §1
# [26] = molecular target: Fuc(a1-3)[Gal(b1-4)]GlcNAc
# Summary of the method: as §1
# [27] = molecular target: Fuc(a1-3)[Gal(b1-4)]GlcNAc(b1-3)Gal(b1-3)[Fuc(a1-4)]GlcNAc
# Summary of the method: as §1
# [28] = molecular target: Fuc(a1-3)[Gal(b1-4)]GlcNAc(b1-4)Gal(b1-4)[Fuc(a1-3)]GlcNAc
# Summary of the method: as §1
# [29] = molecular target: Fuc(a1-3)[Gal(b1-4)]GlcNAc(b1-4)Gal(b1-4)[Fuc(a1-3)]GlcNAc(b1-4)Gal(b1-4)[Fuc(a1-3)]GlcNAc
# Summary of the method: as §1
# [30] = molecular target: Fuc(a1-3)[Gal(b1-4)]GlcNAc6S
# Summary of the method: as §1
# [31] = molecular target: Fuc(a1-3)[Gal3S(b1-4)]Glc
# Summary of the method: as §1
# [32] = molecular target: Fuc(a1-3)[Gal3S(b1-4)]Glc6S
# Summary of the method: as §1
# [33] = molecular target: Fuc(a1-3)[Gal3S(b1-4)]GlcNAc
# Summary of the method: as §1
# [34] = molecular target: Fuc(a1-3)[Gal3S(b1-4)]GlcNAc6S
# Summary of the method: as §1
# [35] = molecular target: Fuc(a1-3)[GalNAc(b1-4)]Gal(b1-4)GlcNAc
# Summary of the method: as §1
# Fuc(a1-4)GlcNAc = molecular target: Fuc(a1-4)GlcNAc
# Summary of the method: as §1
binder,measurement,setting,value
B1,glycan array binding signal (z-score),Fuc(a1-2)Gal,-0.76
same,glycan array binding signal (z-score),Fuc(a1-2)Gal(b1-3)GalNAc,-0.536
same,glycan array binding signal (z-score),[1],1.62
same,glycan array binding signal (z-score),[2],0.034
same,glycan array binding signal (z-score),[3],-0.267
same,glycan array binding signal (z-score),[4],0.264
same,glycan array binding signal (z-score),[5],-0.375
same,glycan array binding signal (z-score),Fuc(a1-2)Gal(b1-4)Glc,-0.605
same,glycan array binding signal (z-score),Fuc(a1-2)Gal(b1-4)Glc6S,-0.35
same,glycan array binding signal (z-score),Fuc(a1-2)Gal(b1-4)GlcNAc,-0.43
same,glycan array binding signal (z-score),[6],0.089
same,glycan array binding signal (z-score),[7],-0.031
same,glycan array binding signal (z-score),[8],-0.718
same,glycan array binding signal (z-score),[9],0.384
same,glycan array binding signal (z-score),[10],-0.179
same,glycan array binding signal (z-score),[11],0.154
same,glycan array binding signal (z-score),Fuc(a1-2)Gal6S(b1-4)Glc,-0.533
same,glycan array binding signal (z-score),[12],0.595
same,glycan array binding signal (z-score),[13],-0.679
same,glycan array binding signal (z-score),Fuc(a1-2)GlcNAc,-0.369
same,glycan array binding signal (z-score),Fuc(a1-2)[Gal(a1-3)]Gal,-0.577
same,glycan array binding signal (z-score),[14],0.037
same,glycan array binding signal (z-score),[15],-0.566
same,glycan array binding signal (z-score),[16],-0.507
same,glycan array binding signal (z-score),[17],0.24
same,glycan array binding signal (z-score),[18],-0.858
same,glycan array binding signal (z-score),[19],-0.58
same,glycan array binding signal (z-score),[20],0.072
same,glycan array binding signal (z-score),[21],0.352
same,glycan array binding signal (z-score),[22],0.47
same,glycan array binding signal (z-score),[23],-0.226
same,glycan array binding signal (z-score),[24],-0.506
same,glycan array binding signal (z-score),Fuc(a1-3)GlcNAc,-0.674
same,glycan array binding signal (z-score),[25],-0.381
same,glycan array binding signal (z-score),[26],-0.537
same,glycan array binding signal (z-score),[27],-0.144
same,glycan array binding signal (z-score),[28],-0.045
same,glycan array binding signal (z-score),[29],0.56
same,glycan array binding signal (z-score),[30],0.09
same,glycan array binding signal (z-score),[31],-0.545
same,glycan array binding signal (z-score),[32],0.365
same,glycan array binding signal (z-score),[33],-0.236
same,glycan array binding signal (z-score),[34],0.755
same,glycan array binding signal (z-score),[35],-0.382
same,glycan array binding signal (z-score),Fuc(a1-4)GlcNAc,-0.195

# 10 entries from above, as tab-separated lines:
binder	measurement	setting	value
B1	glycan array binding signal (z-score)	Fuc(a1-2)Gal(b1-3)GalNAc	-0.536
same	glycan array binding signal (z-score)	[1]	1.62
same	glycan array binding signal (z-score)	[3]	-0.267
same	glycan array binding signal (z-score)	[4]	0.264
same	glycan array binding signal (z-score)	[13]	-0.679
same	glycan array binding signal (z-score)	[14]	0.037
same	glycan array binding signal (z-score)	[15]	-0.566
same	glycan array binding signal (z-score)	Fuc(a1-3)GlcNAc	-0.674
same	glycan array binding signal (z-score)	[28]	-0.045
same	glycan array binding signal (z-score)	[32]	0.365
